Certain results were filed several times, with different values. Only these are listed. An entry can have further records. Values given together differ for a reason that is not stated; they may come from other doses, times, organisms or constructs than stated.
Biological target: Human transthyretin (TTR) thyroxine binding sites (Homo sapiens, UniProt P02766)
Test: TTR CZE Free Probe Peak Height Restoration (FPPHR) assay, 8-ANS displacement
Conditions: compound 50 μM in Running Buffer; 10% minimum for a binder

- FPPHR % at 50 μM: 34.59% and 34.78% tested at 50 µM
SMILES: Cc1[nH]nc(N)c1-c1ccccc1

— PMC12077799, “Fragment-based drug discovery for transthyretin kinetic stabilisers using a novel capillary zone electrophoresis method” (PLOS One, 2025)
